The RNAGym collection of RNA variant scans (doi:10.1126/science.aae0568)
This sample is rich in variants without activity.

B1: tRNA (parent)
chain: GUUCCGUUGGCGUAAUGGUAACGCGUCUCCCUCCUAAGGAGAAGACUGCGGGUUCGAGUCCCGUACGGAACG

Variants of: B1
Assay: yeast fitness relative to wild type (ratio to wild type); higher = fitter; tRNA-Arg(CCU), competitive growth, 37 C, YPD
How it was run: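 Variants of the tRNA-Arg(CCU) gene, chemically synthesised with a 3% per-site mutation rate at 69 sites, were placed at the native genomic locus in Saccharomyces cerevisiae. The pooled strains were competed in YPD at 37°C for 24 hours in six parallel replicates. Gene amplicons from the start population and from each end population were read by 100-nucleotide paired-end sequencing. Darwinian fitness relative to wild type came from changes in genotype frequencies; genotypes needed ≥ 100 starting reads, and estimates < 0.5 were set to 0.5.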

Variant	yeast fitness
U13C A57U U59A A69G	0.561
U13C C22A	0.791
U13C C22A A42G C49U	≤ 0.5
U13C C22U C34G A36U A65C	≤ 0.5
U13C C24U C31A A57C	≤ 0.5
U13C C29A	0.618
U13C C29A G51C U59G G67A	≤ 0.5
U13C C29U U53C G56C	≤ 0.5
U13C C30G C46G G52C G68C	≤ 0.5
U13C C31U A69U	0.835
U13C C31U A70C	0.756
U13C C60G G67A	≤ 0.5
U13C G18A A40G	≤ 0.5
U13C G18A C24A C61G	≤ 0.5
U13C G18C G50C A57U C62U	0.578
U13C G23C A36C G39A A43G	≤ 0.5
U13C G25A U26G G67U	≤ 0.5
U13C G25C C30G A70C	≤ 0.5
U13C G38C	0.644
U13C G48A C62A	0.689
U13C G48A U53C C60A	≤ 0.5
U13C U26A	0.982
U13C U54A C60U	≤ 0.5
U13G A15C U59G	≤ 0.5

Variant	yeast fitness
U13G A20U G52C C61G	≤ 0.5
U13G A20U U28C U59A	≤ 0.5
U13G A21C A65C C66U	≤ 0.5
U13G C22A U26A C27G G48A	≤ 0.5
U13G C27U G39C C49U	≤ 0.5
U13G C30G A40G G50C G51C	≤ 0.5
U13G C33U G41C C66A	≤ 0.5
U13G C46G	1.12
U13G C61A C66A	≤ 0.5
U13G G17C U26A	≤ 0.5
U13G U26C C49G	≤ 0.5
U13G U32A C33A G56C	≤ 0.5
A14C A20G C22U C49G G56C G67A	≤ 0.5
A14C A20U G25C A43C C66U	≤ 0.5
A14C A20U G25C A57G	≤ 0.5
A14C A36G A69C	≤ 0.5
A14C A37G G52A C55G	≤ 0.5
A14C A40U C55G C61U C66U	≤ 0.5
A14C A45G	0.611
A14C C22G G67A	≤ 0.5
A14C C24G U47A C66U	≤ 0.5
A14C C24U C31U U53C G68C	≤ 0.5
A14C C24U U26A G52C	≤ 0.5
A14C C27G A69U	0.561

Variant	yeast fitness
A14C C27G C46G C60G A65G	≤ 0.5
A14C C29G	≤ 0.5
A14C C30G C33U C49U	≤ 0.5
A14C C31A C55U U59C C62U	≤ 0.5
A14C C31G C61A	≤ 0.5
A14C C31U A69U	≤ 0.5
A14C C33A G48A	≤ 0.5
A14C C34G C49U C55U A69C	≤ 0.5
A14C C55U A69C	≤ 0.5
A14C C62G C66A	≤ 0.5
A14C G17C C24U C62G C66U	≤ 0.5
A14C G17C C31U A37C C66U	≤ 0.5
A14C G18A C33U G41C	≤ 0.5
A14C G18C U28A C30G A43G A57G C60U A65C G67U	0.557
A14C G25A C29G A43C G48A A69C	≤ 0.5
A14C G38C G39C C61U	≤ 0.5
A14C U16A A21C G56A	≤ 0.5
A14C U19G C31G C33U A42G G48A G52A	≤ 0.5
A14C U28C A45U U47C A70C	≤ 0.5
A14G A15C G17A U32G A36U	≤ 0.5
A14G A15G C61U A69G	≤ 0.5
A14G A20C C27A	≤ 0.5
A14G A20G A42U	0.696
A14G A21C C24A G39A G56C A69U	≤ 0.5

Variant	yeast fitness
A14G A21G C24G U28G G63C	≤ 0.5
A14G A37U G63C	≤ 0.5
A14G A42C G56C G67A	≤ 0.5
A14G A42G C61G C66A	≤ 0.5
A14G A57C C62U	≤ 0.5
A14G A57C G67C	≤ 0.5
A14G A57U A65U	≤ 0.5
A14G A57U A69G A70C	≤ 0.5
A14G C22G C30G G68A	≤ 0.5
A14G C24G C31U C55A A70G	≤ 0.5
A14G C24G C31U C55G G63C	≤ 0.5
A14G C24G C31U G52C	≤ 0.5
A14G C29G A43C G52A C61A	≤ 0.5
A14G C29U A37G A65G	≤ 0.5
A14G C30G C46U C60G	≤ 0.5
A14G C30U C46A G50A	≤ 0.5
A14G C31A A43G	0.679
A14G C31G A37G	≤ 0.5
A14G C31G A37U G44A A65U	≤ 0.5
A14G C31U A36C G39C C55U A57U	≤ 0.5
A14G C33U G38A	≤ 0.5
A14G C49G A69U	0.566
A14G C49U G63C	≤ 0.5
A14G C55A A57U G58C	≤ 0.5

Variant	yeast fitness
A14G C55A A69C	≤ 0.5
A14G G17A A37U C60A	≤ 0.5
A14G G18A C34G A43C	≤ 0.5
A14G G18C C31A	≤ 0.5
A14G G18C C60A C66U	≤ 0.5
A14G G18C G50C C66U	≤ 0.5
A14G G23C A70U	0.564
A14G G25A G52A	≤ 0.5
A14G G39C C55U	≤ 0.5
A14G G48C G67C	≤ 0.5
A14G U19A C33U A36U C66U	≤ 0.5
A14G U19A C55U	≤ 0.5
A14G U19C A21U	0.503
A14G U26A A37U G41A C62U	≤ 0.5
A14G U26A C27G	≤ 0.5
A14G U26C G67C A69G	≤ 0.5
A14G U32A G39A U54A	≤ 0.5
A14G U54A	≤ 0.5
A14U A15C C31G A43U	0.627
A14U A15G	0.725
A14U A15U C27A C29G G44C C66A A70U	≤ 0.5
A14U A20C A21G	≤ 0.5
A14U A20C C22G G25C C27A A37U	≤ 0.5
A14U A20C C24G C55U A69C	≤ 0.5

Variant	yeast fitness
A14U A20C C24G C55U A69U	≤ 0.5
A14U A20C C33A	≤ 0.5
A14U A21G U28A C55G	≤ 0.5
A14U A36C G50A	≤ 0.5
A14U A37G G44C A45C G50A C55G	0.594
A14U A42G	0.529
A14U A43G C62A	≤ 0.5
A14U A57C C60G C61A	0.601
A14U C24G C62A	≤ 0.5
A14U C24G G41A G44A U47C U53A C66U	≤ 0.5
A14U C27U C55U	≤ 0.5
A14U C29A C66U	≤ 0.5
A14U C29G A37C A42U A57G G67A	≤ 0.5
A14U C29G A65U	≤ 0.5
A14U C29G U53C U54G	0.571
A14U C29U	0.64
A14U C29U A37U	≤ 0.5
A14U C30G A40G	≤ 0.5
A14U C30G A40G C62U G63A	≤ 0.5
A14U C30U C60A C66U	0.618
A14U C31G C49U C55U	≤ 0.5
A14U C46A G51C A57U	≤ 0.5
A14U C49A C55G G56C	≤ 0.5
A14U C60G A70C	≤ 0.5

Variant	yeast fitness
A14U C62G	0.692
A14U G17A C22U C33G G67U	0.613
A14U G17A G23C C29U C34G A45C U54G G56A	≤ 0.5
A14U G17C C24A C30G C66U	≤ 0.5
A14U G17C U53G	0.603
A14U G18A	≤ 0.5
A14U G18A U53A U64A	≤ 0.5
A14U G18C	0.583
A14U G18C G39C C49G C61U	≤ 0.5
A14U G23U G68C	0.514
A14U G44A C62G	≤ 0.5
A14U G44C G50A	≤ 0.5
A14U G51C	≤ 0.5
A14U G52A C66U	≤ 0.5
A14U U16G C33G G50A G58C G63C	≤ 0.5
A14U U19A G39A G67U	≤ 0.5
A14U U26C A43C C46A	≤ 0.5
A14U U47A A57G	≤ 0.5
A14U U59A G68C	≤ 0.5
A15C A20C C55U	≤ 0.5
A15C A20G G68C	≤ 0.5
A15C A20U C30A C34U G39A C55G	≤ 0.5
A15C A21U C24U A65U G68A	≤ 0.5
